These results are taken from PubChem BioAssay AID493014 (National Center for Advancing Translational Sciences (NCATS), 2011).

What is called AC50 is the concentration at which the activity in the assay is half-maximal.

Some of the results follow. These are further read-outs of the screen, such as a control signal, another cell line or another target. No call is given for them. Compounds called inactive in the main read-out are mostly missing here. Words in brackets tell the shape of the fitted curve; partial curves, single points and poor fits give uncertain potencies.

A short description of this experiment: qHTS Assay to Find Inhibitors of Chronic Active B-Cell Receptor Signaling. Conditions: ABC-DLBCL IkBa-CBG/CBR reporter, luminescence ratio (green luciferase fused to IkBa over red control in TMD8 lymphoma cells), 4 h. In outline: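 Concentration-response series (up to 46 uM) were applied to TMD8 dual-reporter cells for 4 h at 37C with doxycycline. Green/red ratio, after filter-overlap correction, defined %Activity; red signal alone was normalised to basal cells and zero luminescence.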
(In general: qHTS replaces the single test concentration by a dilution series.)

Setting [1] is: measured here: CBR red luminescence, cell number.
The mark [2] stands for this setting: measured here: IkBa-CBG green luminescence.

With `CCOC(=O)CNC(=O)C1Cc2ccccc2CN1S(=O)(=O)c1cccs1` (configuration not stated), the half-maximal activity concentration (AC50) under setting [1] is 20 µM [rising, partial curve, poor fit].
Same read-out and setting: under `Clc1ccc2c(c1)nc1n2CCCC1` stands 35.5 µM [rising, single point]; under `CCC1(O)CC(C(=O)OC)=NN1C(=O)c1ccccc1` (configuration not stated), 3.66 µM [falling, partial curve, poor fit]; under `Cc1oc(-c2ccccc2Cl)[n+]([O-])c1C`, 2.06 µM [rising, full curve, poor fit].
Same read-out and setting: under `CSc1ccc(CCNC(=O)c2ccc(CS(=O)Cc3ccc(Cl)cc3)o2)cc1` (configuration not stated) stands 20 µM [falling, single point]; under `COc1cc(C(C#N)N2CCC(c3ccccc3)=N2)ccc1O` (configuration not stated), 6.31 µM [rising, partial curve, poor fit]; under `Cc1[nH]n(-c2ccccc2)c(=O)c1/C=N/NC(=O)c1cccc([N+](=O)[O-])c1`, 0.631 µM [falling, partial curve, poor fit].
Take `COCc1cc(=O)[nH]c(Nc2nc(C)c3ccccc3n2)n1`: under setting [1], the AC50 was 4.61 µM [falling, full curve].
Same read-out and setting: under `CC1=NNC(=O)C1CCC(=O)N/N=C(\C)c1ccccc1` (configuration not stated) stands 35.5 µM [falling, single point].
Still for that read-out and setting: under `CCOCc1nnc(NC(=O)c2cc(Cl)ccc2OC)s1` stands 0.82 µM [rising, full curve].
On to `Cc1csc(NC(=O)c2cccs2)n1`, for which the AC50 was 11.6 µM [falling, partial curve] under setting [1] and 7.31 µM [rising, partial curve, poor fit] under setting [2].
On to `COc1ccc(NC(=O)Nc2c(C)noc2-c2ccccc2)cc1`, for which the half-maximal activity concentration (AC50) under setting [1] is 31.6 µM [rising, single point].
Turning to `O=C(O)c1cccc(NC(=S)NC(=O)c2ccncc2)c1`, the AC50 under setting [1] is 11.2 µM [falling, partial curve, poor fit].
Take `CCCc1nc(NC(C)=O)c(C#N)c(-c2ccco2)c1CC`: the AC50 under setting [1] is 3.16 µM [falling, full curve, poor fit].
Turning to `COCCn1c(SCC(=O)Nc2ccc(OC)c(S(N)(=O)=O)c2)nc2ccccc21`, the concentration at half-maximal activity (AC50) under setting [1] was 5.01 µM [falling, full curve, poor fit].
In the case of `COc1ccccc1CNC(=O)C(=O)c1cn(CC(=O)N2CCCC2)c2ccccc12`, under setting [1], the AC50 is 1.26 µM [falling, full curve].
Same read-out and setting: under `COc1ccc(OC)c(NC(=O)COC(=O)c2n[nH]c3ccccc23)c1` stands 8.2 µM [falling, partial curve]; under `Cn1nc(C(F)(F)F)c(-c2cccc(C(F)(F)F)c2)c1NC(=O)Nc1ccc(F)cc1`, 17.8 µM [rising, single point].
Still for that read-out and setting: under `COCc1nnc(NC(=O)C(C)C)s1` stands 4.11 µM [rising, full curve, poor fit]; under `O=C(Nc1ccc2c3c(cccc13)CC2)c1cccc([N+](=O)[O-])c1`, 18.4 µM [rising, partial curve].
Same read-out and setting: under `COc1ccccc1CNC(=O)COC(=O)c1cccc(-n2cnnn2)c1` stands 0.517 µM [rising, full curve, poor fit]; under `Cc1ccc(N2C(=O)CS(=O)C(c3ccccc3)C2=O)cc1C` (configuration not stated), 14.1 µM [falling, single point]; under `CCOc1cc(-c2noc(CCC(=O)Nc3cccnc3)n2)ccc1OC`, 35.5 µM [falling, single point].
Turning to `Cc1ccc(S(=O)(=O)N2CCN(C(=O)CSC3CCCC3)CC2)c(C)c1`, the AC50 by setting is: under setting [1], 6.51 µM [rising, single point]; under setting [2], 4.11 µM [falling, partial curve, poor fit].
As to `C/C(=N\NS(C)(=O)=O)c1ccc(C)cc1`, under setting [1], the concentration at half-maximal activity (AC50) was 0.731 µM [rising, full curve, poor fit].
Still for that read-out and setting: under `COc1ccc(S(=O)(=O)Nc2cccc(-c3ccc(N4CCCCCC4)nn3)c2)c(OC)c1` stands 7.94 µM [rising, partial curve]; under `COc1ccc(CC(=O)NNc2ncnc3c2cnn3-c2ccc(C)cc2)cc1`, 18.4 µM [falling, single point].
Still for that read-out and setting: under `O=C(COC(=O)c1cc([N+](=O)[O-])ccc1NCc1ccccc1)NCc1ccccc1Cl` stands 10.3 µM [rising, partial curve, poor fit]; under `O=C(CN1CCN(Cc2ccc(F)cc2)C1=O)NC1CCCC1`, 2.82 µM [rising, partial curve, poor fit]; under `COCC(=O)Nc1nnc(CCc2ccccc2)s1`, 3.16 µM [rising, full curve].
Still for that read-out and setting: under `Cc1ccc2c(c1)CCCN2C(=O)c1cc2ccccc2oc1=O` stands 8.2 µM [rising, partial curve, poor fit]; under `Cc1cc(C)c2nc(NC(=O)c3ccc([N+](=O)[O-])o3)sc2c1`, 2.82 µM [falling, partial curve, poor fit]; under `CCOC(=O)Cn1nnnc1C(CC)N(Cc1cccs1)Cc1cc2ccc(OC)cc2[nH]c1=O` (configuration not stated), 14.1 µM [falling, single point].
Consider `Cc1ccc(CN2C(=O)C3CCCN3c3ncccc32)cc1` (configuration not stated), for which the half-maximal activity concentration (AC50) under setting [1] was 35.5 µM [rising, single point].
On the same count and under the same terms, under `CCOC(=O)Cn1c(=O)n(Cc2ccco2)c(=O)c2ccc(C(=O)NCCc3ccccc3)cc21` stands 3.16 µM [rising, single point]; under `Cc1cccc(/N=C/c2sc3ccccc3c2O)n1`, 4.47 µM [falling, partial curve, poor fit]; under `CCC(O)CNc1nc(SC)nc2sc3c(c12)CCN(C)C3` (configuration not stated), 15.8 µM [falling, single point].
For the molecule `Cc1ccc(NC(=O)CN(c2cc(C)cc(C)c2)S(=O)(=O)c2c(C)noc2C)nc1`, the AC50 under setting [1] is 11.2 µM [falling, partial curve].
On the same count and under the same terms, under `Cc1ccc(S(=O)(=O)N2C(=O)C(c3ccccc3)SC2=Nc2ccccc2)cc1` (configuration not stated) stands 16.4 µM [falling, single point]; under `COc1cc(OC)cc(C(=O)OCC(=O)Nc2ccc(F)cc2F)c1`, 0.1 µM [rising, full curve, poor fit].
`O=C(N=Nc1c(O)[nH]c2ccccc12)c1ccc2c(c1)OCO2`: the AC50 under setting [1] is 2.51 µM [falling, full curve, poor fit].
Still for that read-out and setting: under `Cn1ccnc1Sc1cc(Cl)ccc1[N+](=O)[O-]` stands 14.1 µM [rising, single point]; under `O=C(O)CCCN1C(=O)/C(=C/c2ccc(-c3nc4ccccc4s3)o2)SC1=S`, 7.31 µM [falling, partial curve, poor fit].
As for `CCOc1cccc(-c2nc3cc(C)ccc3o2)c1`, the half-maximal activity concentration (AC50) under setting [1] is 1.26 µM [rising, full curve, poor fit].
On the same count and under the same terms, under `CCCc1nnc(SCC(=O)NC2CC2)n1C` stands 35.5 µM [falling, single point]; under `CCOc1ccccc1NC(=O)C1C2C=CC(C2)C1C(=O)O` (configuration not stated), 0.231 µM [rising, full curve, poor fit]; under `COc1cc2[nH]c(C(=O)N3CCc4ccccc4C3)cc2c(OC)c1OC`, 2.82 µM [falling, full curve, poor fit].
In the case of `CCN(c1ccccc1)S(=O)(=O)c1ccc(N2CCN(c3ccc(O)cc3)CC2)nc1`, under setting [1], the AC50 was 29.1 µM [falling, single point].
On the same count and under the same terms, under `CCOC(=O)Cc1csc(NC(=S)NC(=O)c2ccc(Cl)cc2)n1` stands 0.891 µM [falling, partial curve, poor fit].
The same measure, in the same setting: under `Cc1noc(C)c1C(=O)OCC(=O)N(C)C1(C#N)CCCCC1` stands 9.2 µM [falling, partial curve, poor fit].
The same measure, in the same setting: under `CCOC(=O)C1=C(CC)Nc2ccccc2N=C1NC(=O)c1cc(C)on1` stands 29.1 µM [rising, single point]; under `COc1cccc(/C=C2\SC(=S)N(CCCC(=O)N3CCCCC3)C2=O)c1`, 22.4 µM [falling, partial curve, poor fit].
`Cc1cc(C)cc(NC(=O)C2CC3CCC2C3)c1` (configuration not stated): under setting [1], the AC50 was 14.1 µM [rising, partial curve].
Still for that read-out and setting: under `Cc1ccccc1OCC(=O)O/N=C(\N)Cc1ccc(Cl)cc1` stands 29.1 µM [falling, single point]; under `COC(=O)/C=C(\C)N=Nc1c(O)[nH]c2ccccc12`, 3.98 µM [rising, full curve, poor fit]; under `C/C=C/c1ccc(OCCCNC2CCCC2)c(OC)c1`, 0.146 µM [rising, full curve, poor fit].
Still for that read-out and setting: under `CCOC(=O)CCS(=O)(=O)c1nc(-c2ccccc2)cc(C(F)(F)F)n1` stands 2.59 µM [falling, full curve]; under `CCOc1cc(NC(=S)NCCOC)c(OCC)cc1NC(=O)c1cccs1`, 17.8 µM [falling, partial curve].
Same read-out and setting: under `Nc1nc(N)c(N=Nc2ccc(C(=O)O)cc2)c(N)n1` stands 22.4 µM [falling, partial curve, poor fit].
For `Cc1ccc2oc(Nc3nc(-c4ccccc4)cc(=O)[nH]3)nc2c1`, the AC50 under setting [1] was 8.91 µM [rising, partial curve] and the concentration at half-maximal activity (AC50) under setting [2] was 2.82 µM [falling, partial curve, poor fit].
Turning to `O=C(NCC1COc2ccccc2O1)c1cc(S(=O)(=O)N2CCOCC2)ccc1F` (configuration not stated), under setting [1], the AC50 was 4.61 µM [rising, partial curve, poor fit].
Consider `COc1cccc(/C=C/c2ccc3ccccc3n2)c1OC(C)=O`, for which the concentration at half-maximal activity (AC50) under setting [1] was 12.6 µM [falling, partial curve].
On the same count and under the same terms, under `COCCCn1c(O)c(/C=C2\N=C(C#N)C(=Nc3ccc(C)cc3)O2)sc1=S` stands 3.16 µM [falling, single point]; under `CC(=O)Nc1ccc(S(=O)(=O)NCCCN2CCN(Cc3ccccc3)CC2)cc1Cl`, 35.5 µM [falling, single point].
